Laboratory results published in PMC5007355.

How the values were obtained:
[1] = biological target: T1, Fur (ferric uptake regulator) (UniProt O25671); test: competitive DNase I footprinting; details: Footprinting: 15 fmol probe in 50 ul, 300 ng salmon sperm DNA, room temperature, 150 uM Fe2+ or dipyridyl, competitive buffer 20 mM HEPES pH 7.85, 50 mM KCl, recombinant protein, label: 5'-32P on one strand, probe letters rebuilt from the primers and the genome, part of a longer molecule
T1 sequence (looked up, limits assumed): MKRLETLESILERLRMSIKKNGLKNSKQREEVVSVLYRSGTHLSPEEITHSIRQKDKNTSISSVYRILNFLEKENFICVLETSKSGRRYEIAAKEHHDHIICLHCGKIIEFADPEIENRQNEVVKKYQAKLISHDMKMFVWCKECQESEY

[2] = biological target: T1, Fur (ferric uptake regulator); test: DNase I footprinting; details: holo (150 uM Fe2+), site fOPII, affinity lower than apo; Footprinting: 15 fmol probe in 50 ul, 300 ng salmon sperm DNA, room temperature, 150 uM Fe2+ or dipyridyl; competitive buffer 20 mM HEPES pH 7.85, 50 mM KCl; recombinant protein; label: 5'-32P on one strand; probe letters rebuilt from the primers and the genome; part of a longer molecule

Measured: binding result

CGATTAGAATCTTTGGAGCGAGAAAACACAGAGTGAAAAATGATCAAAGGAATTGCTTAAAAACATTAAAAAATAAGACTTTAATTTTTAATATTCCATGAAAACAAAGCCTTAATTTCCATTAATAACTATGATAATGTTTTGAATTTTTATTTTTAAGATATTTTCAAGGTATCTTTAATAATAAAATGCTAGAATTAGTCCCTTAAAACATTAGCAAAGTTAATCGTTTTTAAAGTTGCAGAAATCATTGAAGGAGTTAAT (double strand) [ParsR wild-type footprinting probe]
binds more weakly: [1]; holo-Fur 70 nM tetramer plus increasing holo-NikR (to 32 nM tetramer), 150 uM Ni2+, site fOPIII | [1]; holo-Fur 70 nM tetramer plus increasing holo-NikR, site fOPII | [2]

Construct, isoform or probe ends are uncertain for at least one entry. A weaker result is weaker than the reference pair of the same experiment. Where a protein sequence is shown, tags need not be part of it.
